Earlier results, collected in patent US20220394981A1, “MICRONUTRIENT FORMULATIONS THAT CONTROL PLANT PATHOGENS” (priority 2021, published 2022).
At least one structure is not confirmed: it was looked up by name or label, or the drawing left a doubt.

Settings: cited from earlier work

Question: With `O=C([O-])C(NCCNC(C(=O)[O-])c1ccccc1[O-])c1ccccc1[O-].[Fe+3].[Na+]` (stereo not shown) [Fe-EDDHA] as the molecule, how does the “effective pH range” value read?
Answer: 4.0-9.0
